In all, about 410,000 compounds went through this assay and about 18,000 (4.4%) were called active. This list was built around the results that the source calls inconclusive (neither active nor inactive); the mix of calls is not that of the screen. No stated cut-off is given here; in the data, active means activity change below about -60%; inconclusive means no clear call, values can overlap the other calls; inactive means above about -39%.
Test: qHTS Assay for inhibitors of the human cytomegalovirus (HCMV)
Settings: HFF cells, HCMV-luciferase reporter, 72 h; at 57.5 µM; active compounds read low
In short: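 Luciferase read-out from HCMV-luciferase-infected HFFs (MOI 1 PFU/cell) 72 h post infection at 37C; compounds added after 16 h cell attachment; activity normalized between buffer-only basal and Salinomycin (10uM) inhibitor controls.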
For `CCSc1nc(-c2ccccc2F)nc2c1Cc1c(CO)cnc(C)c1O2`, the activity change, negative = inhibition was inactive: 1.94%. For `Oc1ccc(-c2nccc(-c3ccc(Cl)cc3Cl)n2)cc1`, the activity change, negative = inhibition was inconclusive: -59%. In the case of `O=C(CC(=O)NC1CCCCC1)N/N=C/c1ccccc1Cl`, the activity change, negative = inhibition is reported as inconclusive: -40.8%. For `CCOC(=O)c1cnn(-c2ccccc2)c1-n1cccc1C(=O)C(=O)Nc1ccc(F)cc1`, the activity change, negative = inhibition was inactive: -19.3%. In the case of `Cc1ccc(S(=O)(=O)N2[C@@H](c3ccc(Cl)cc3)C(C(=O)O)=CC[C@H]2c2ccc(Cl)c(Cl)c2)cc1`, the activity change, negative = inhibition is reported as active: -64.4%. For `Cc1cc(OC(=O)c2ccccc2F)c([N+](=O)[O-])c(=O)[nH]1`, the activity change, negative = inhibition was inactive: 0%. In the case of `CC(=O)c1c(C(C)=O)c(C)n(-c2nc(-c3ccc(Br)cc3)c(C)s2)c1C`, the activity change, negative = inhibition is reported as inconclusive: -44.2%. In the case of `COc1cccc(NC(=O)CN(C)CC(=O)NCc2ccc(F)cc2)c1`, the activity change, negative = inhibition is reported as inconclusive: -41.5%. For `COc1ccc(N(CC2CO2)S(=O)(=O)c2ccccc2)cc1` (stereo not given), the activity change, negative = inhibition was active: -61.6%. In the case of `COc1ccc(NC(=O)c2cc(C)cc(C)c2)cc1[N+](=O)[O-]`, the activity change, negative = inhibition is reported as inconclusive: -42%. In the case of `CCN(C(=O)c1cn(CC)c(=O)c2cc(OC)c(OC)cc12)c1ccccc1F`, the activity change, negative = inhibition is reported as inactive: -13.2%. In the case of `Cc1noc(NS(=O)(=O)c2ccc(NC(=O)C(C)(C)C)cc2)c1C`, the activity change, negative = inhibition is reported as inactive: -15.1%. In the case of `CCc1ccccc1NC(=O)c1noc2c1CC(C(C)(C)C)CC2` (stereo not given), the activity change, negative = inhibition is reported as inactive: -9.96%. With `O=C(Oc1ccc(/C=N/NC(=O)c2ccccn2)cc1)c1cccc(F)c1` the activity change, negative = inhibition was inactive: 18.5%. In the case of `CCOC(=O)c1ccc(NC(=O)CSC(=S)N2CCOCC2)cc1`, the activity change, negative = inhibition is reported as inconclusive: -59.9%. For `Cc1cc(C)nc(N2CCC(C(=O)Nc3cccc(C(F)(F)F)c3)CC2)n1`, the activity change, negative = inhibition was inconclusive: -44.4%. In the case of `O=c1c(O)c(-c2cc(O)c(O)c(O)c2)oc2cc(O)cc(O)c12`, the activity change, negative = inhibition is reported as inconclusive: -43.8%. With `CCN(CC)S(=O)(=O)c1ccc(NC(=O)CNC2CCCCC2)cc1` the activity change, negative = inhibition was inconclusive: -44.8%. For `O=C(Cc1ccccc1)NC(NC(=O)Cc1ccccc1)c1cccc([N+](=O)[O-])c1`, the activity change, negative = inhibition was inconclusive: -58.9%. With `Cc1cccc(NC(=O)c2ccc3nccnc3c2)n1` the activity change, negative = inhibition was inactive: -28.1%. For `O=C(NC(=S)Nc1ncc(Br)cc1Br)c1ccccc1`, the activity change, negative = inhibition was inconclusive: -52.2%. For `COc1cc(CNC2CCCCCCC2)cc(Br)c1OCC#N`, the activity change, negative = inhibition was inconclusive: -48.8%. With `COc1ccc(C)cc1NC(=O)c1cc(S(=O)(=O)N2CCCCC2)c[nH]1` the activity change, negative = inhibition was inconclusive: -49.5%. With `O=C(CSc1nc(O)c(Cc2ccccc2)c(=O)[nH]1)Nc1nnc(SCc2ccccc2)s1` the activity change, negative = inhibition was inconclusive: -41.9%. With `CCCN1CCN(CCCNC(=O)c2ccc3nc(Cc4ccccc4)oc3c2)CC1` the activity change, negative = inhibition was inactive: 8.36%. With `CCCCN1CC(c2nc3ccccc3n2CCCCOc2cccc(C)c2C)CC1=O` (stereo not given) the activity change, negative = inhibition was inconclusive: -56.2%. For `C[C@H]1CC[C@@H]2[C@@H](C)[C@H]3[C@H](C[C@H]4[C@@H]5CC=C6C[C@@H](O[C@@H]7O[C@H](CO)[C@H](O)[C@H](O[C@@H]8O[C@H](CO)[C@@H](O)[C@H](O)[C@H]8O)[C@H]7O[C@@H]7O[C@@H](C)[C@H](O)[C@@H](O)[C@H]7O)CC[C@]6(C)[C@H]5CC[C@]34C)N2C1`, the activity change, negative = inhibition was inconclusive: -43%. In the case of `CCOC(=O)c1c(NC(=O)C2C3CCC(O3)C2C(=O)O)sc2c1CCC(CC)C2` (stereo not given), the activity change, negative = inhibition is reported as inconclusive: -43.1%. With `CCN(CC(=O)Nc1cc(Cl)ccc1C)C(=O)C1CCCCC1` the activity change, negative = inhibition was active: -61.1%. With `CCC(C)Cn1c(C)nc2ccccc21` (stereo not given) the activity change, negative = inhibition was inconclusive: -56.8%. With `Cc1ccc(NC(=O)CSc2ccc3c(c2)OCCO3)c(O)c1` the activity change, negative = inhibition was inconclusive: -50%. For `CCCSC(=S)c1c(C)[nH]n(-c2ccccc2)c1=O`, the activity change, negative = inhibition was active: -79%. For `O=c1nc(SCc2c(F)cccc2Cl)nc(-c2ccc(Cl)cc2)[nH]1`, the activity change, negative = inhibition was inconclusive: -51.9%. For `Cc1ccc(CNC(=O)Cn2c(=O)n(-c3ccc(C)cc3)c(=O)c3c2c2cc(C)ccc2n3C)cc1`, the activity change, negative = inhibition was inactive: 18.8%. With `C#CCOc1ccc2c(c1)c(C(C)=O)c(C)n2Cc1ccccc1` the activity change, negative = inhibition was inconclusive: -51.9%. For `Cc1ccc(CNC(=O)C(=O)NCC(c2ccco2)S(=O)(=O)c2ccccc2)cc1` (stereo not given), the activity change, negative = inhibition was inconclusive: 0%. In the case of `Nc1nc2ccc(S(=O)(=O)N3CCCCC3)cc2s1`, the activity change, negative = inhibition is reported as inconclusive: -47.1%. For `CCCN(Cc1cc2cc(C)ccc2[nH]c1=O)C(=O)c1cccc(OC)c1`, the activity change, negative = inhibition was inconclusive: -51.5%. With `O=C(OCc1cnc(Cl)s1)c1c(F)cccc1F` the activity change, negative = inhibition was inconclusive: -41.5%. In the case of `CCOC(=O)N1CCN(CC(O)COc2ccccc2[N+](=O)[O-])CC1` (stereo not given), the activity change, negative = inhibition is reported as inconclusive: -56.8%. With `Cc1ccc(N(C(=O)c2csnn2)C(C(=O)NC2CCCC2)c2ccccn2)c(C)c1` (stereo not given) the activity change, negative = inhibition was inactive: -13.9%. With `C[C@]12CC[C@@H](O)CC1=CCC1C2CC[C@]2(C)C(=O)[C@H](F)CC12` (stereo not given in full) the activity change, negative = inhibition was inconclusive: -40.1%. In the case of `Cc1ccc(C(=O)Nc2cccc(C(F)(F)F)c2)cc1NC(=O)c1nccnc1N`, the activity change, negative = inhibition is reported as inconclusive: -58.2%. With `CCCC(=O)Nc1ccc(C(=O)N/N=C/c2ccc([N+](=O)[O-])o2)cc1` the activity change, negative = inhibition was active: -94.8%. For `Cc1ccc(-c2nnc(Nc3ccccc3)c3ccccc23)cc1S(=O)(=O)NCC1CCCO1` (stereo not given), the activity change, negative = inhibition was inconclusive: -44.7%. In the case of `CCOC(=O)N1CCN(c2nc(SC)nc3sc4c(c23)CC(C)(C)OC4)CC1`, the activity change, negative = inhibition is reported as inactive: 19.1%. In the case of `CC(=O)NC(c1cccs1)c1cc(Br)c2cccnc2c1O` (stereo not given), the activity change, negative = inhibition is reported as active: -100%. In the case of `O=C1CCCN1c1ccc(S(=O)(=O)N2CCC(c3ccccc3)CC2)cc1`, the activity change, negative = inhibition is reported as inconclusive: -54.6%. In the case of `COc1ccc(COC(=O)CCc2c[nH]c3ccccc23)cc1F`, the activity change, negative = inhibition is reported as inconclusive: -54.3%. With `O=C(Cc1ccc(-n2cccc2)cc1)N1CCc2ccccc21` the activity change, negative = inhibition was inactive: 21.2%. With `O=C(Nc1ccccc1)C1=C(c2ccccc2)S(=O)(=O)CCS1(=O)=O` the activity change, negative = inhibition was active: -92.7%. In the case of `CCCCc1cc(=O)oc2cc(OCC(=O)N3CCOCC3)ccc12`, the activity change, negative = inhibition is reported as active: -80.6%. In the case of `CN(CC(=O)Nc1ccccc1Br)C(=O)c1ccccc1OCc1ccccc1Cl`, the activity change, negative = inhibition is reported as inconclusive: -42.9%. In the case of `Cc1cccc(-n2nc(C)c(C(=O)Nc3cc(C)ccc3C)c2-n2cccc2)c1`, the activity change, negative = inhibition is reported as inconclusive: 0%. For `COc1cc(/C=N/N2CCOCC2)ccc1OCc1ccc(Cl)cc1`, the activity change, negative = inhibition was inconclusive: -44.9%. For `O=C(NCc1ccccc1Cl)c1ccc2oc(=O)n(Cc3ccccc3)c2c1`, the activity change, negative = inhibition was inactive: -21.2%. In the case of `COc1cccc(NC(=O)c2ccc(S(=O)(=O)NCc3cccnc3)cc2)c1`, the activity change, negative = inhibition is reported as active: -60.5%. For `CCCOc1cccc(C(=O)Nc2cc(NC(=O)c3ccco3)ccc2OC)c1`, the activity change, negative = inhibition was inconclusive: -48.9%. With `Cc1c(CC(=O)NCc2ccc(F)cc2)c(=O)oc2cc(O)c(Cl)cc12` the activity change, negative = inhibition was inconclusive: -54%. In the case of `CC(=O)Nc1c(C)ccc(CNC(=O)COc2cc(C)ccc2C)c1C`, the activity change, negative = inhibition is reported as inconclusive: -46.9%. With `CCOc1cccc2sc(N(Cc3cccnc3)C(=O)c3ccc(C#N)cc3)nc12` the activity change, negative = inhibition was inconclusive: 0%. With `COC(=O)c1cccnc1-n1c(=O)c2cccnc2n(Cc2cccc([N+](=O)[O-])c2)c1=O` the activity change, negative = inhibition was active: -85.8%. With `O=C(c1cccnc1)N1c2ccccc2Sc2ccccc21` the activity change, negative = inhibition was inconclusive: -46%. For `Cc1n[nH]c(=S)n(NC(=O)CC(=O)Nn2c(=S)[nH]nc(C)c2=O)c1=O`, the activity change, negative = inhibition was inconclusive: -52.7%. In the case of `CCC(=O)/C=C1/Sc2ccc(OC)cc2N1CCO`, the activity change, negative = inhibition is reported as inconclusive: -47.3%. In the case of `Cc1csc2nc(COC(=O)c3ccccc3NC(=O)c3ccc(C(C)(C)C)cc3)cc(=O)n12`, the activity change, negative = inhibition is reported as inconclusive: -44%. In the case of `Cn1c(=O)n(C)c2cc(C(=O)Nc3ccc(Br)cc3)ccc21`, the activity change, negative = inhibition is reported as inconclusive: -46.8%. In the case of `CCc1ccc(-c2cc(C(=O)N/N=C/c3ccco3)[nH]n2)cc1`, the activity change, negative = inhibition is reported as inconclusive: -53.6%. With `C[C@H](NC(N)=O)C(=O)OCC(=O)NCc1cccs1` the activity change, negative = inhibition was inconclusive: -49.3%. In the case of `O=C(Nc1ccc([N+](=O)[O-])cc1)Nc1ccc(OC(F)F)c(Cl)c1`, the activity change, negative = inhibition is reported as active: -101%. In the case of `Cc1ccc(-c2nc3ncccc3o2)cc1NC(=O)c1cccs1`, the activity change, negative = inhibition is reported as inconclusive: -43.8%. For `Cc1nc(NC(=O)c2ccccc2)sc1-c1csc(NCCc2ccccc2)n1`, the activity change, negative = inhibition was inconclusive: -40%. With `CCOC(=O)c1cnc(-n2nc(C)cc2C)nc1NC1CCCCC1` the activity change, negative = inhibition was active: -86.5%. In the case of `C/C(CC(=O)N1CCN(C=O)CC1)=N\NC(=O)c1cc2ccccc2cc1O`, the activity change, negative = inhibition is reported as active: -63.5%. With `COP(=O)(OC)C(Nc1ccccc1)c1ccccc1` (stereo not given) the activity change, negative = inhibition was inactive: -12.5%. For `O=C(Nc1ccc(Br)cc1)c1cc([N+](=O)[O-])cc([N+](=O)[O-])c1`, the activity change, negative = inhibition was inconclusive: -47%. With `CCOC(=O)c1sc2nc(C)nc(Nc3ccc(OC)c(OC)c3)c2c1C` the activity change, negative = inhibition was inconclusive: -46.2%. With `COc1ccc(Nc2cc(Cl)ccc2C(=O)O)cn1` the activity change, negative = inhibition was inconclusive: -41.5%. For `CCOc1ccc(OCCC(=O)OCC(=O)NC2CC2)cc1`, the activity change, negative = inhibition was inconclusive: -43.9%. For `C/C(=N/Nc1nc(-c2ccccc2F)nc2ccccc12)c1ccccc1O`, the activity change, negative = inhibition was inconclusive: -51%. For `CCOc1ccc(N(Cc2ccccc2)C(=O)c2nc(S(C)(=O)=O)ncc2Cl)cc1`, the activity change, negative = inhibition was active: -101%. In the case of `S=c1nc2c(n[nH]1)c1ccccc1n2CCc1ccccc1`, the activity change, negative = inhibition is reported as inconclusive: -50%. With `Cc1cccc(N2CCN(C(=O)CS(=O)(=O)Cc3nc(-c4ccccc4C)oc3C)CC2C)c1` (stereo not given) the activity change, negative = inhibition was inconclusive: -57.8%. In the case of `O=C(/C=C/c1ccc(S(=O)(=O)NCc2ccco2)cc1)N1CCN(c2ccccc2)CC1`, the activity change, negative = inhibition is reported as inconclusive: -52.9%. With `CCCCCc1cc(=O)oc2c(C(CCN3CCCC(C)C3)c3ccc4c(c3)OCO4)c(OC)cc(OC)c12` (stereo not given) the activity change, negative = inhibition was inconclusive: -42.5%.
On the % scale 0 is the no-effect control and ±100 the full control effect.
